Assay results reported in publication doi:10.1101/2025.06.12.659319.
No constants are given. Whether binding was seen depends on the method and setting. In cells and extracts the contact can be indirect. Some binding calls cover weakened binding; strength is not graded here. Where a sequence is shown, tags or fusion partners need not be part of it.

Biological target: ΔNp63α mNLSbip (RLuc- and YFP-fusions, full length) (human) (UniProt Q9H3D4)
Assay: FRET or BRET

binding: binds
B1: ΔNp63α mNLSbip (RLuc- and YFP-fusions, full length) (protein, UniProt Q9H3D4-2 1-586)
chain: MLYLENNAQTQFSEPQYTNLGLLNSMDQQIQNGSSSTSPYNTDHAQNSVTAPSPYAQPSSTFDALSPSPAIPSNTDYPGPHSFDVSFQQSSTAKSATWTYSTELKKLYCQIAKTCPIQIKVMTPPPQGAVIRAMPVYKKAEHVTEVVKRCPNHELSREFNEGQIAPPSHLIRVEGNSHAQYVEDPITGRQSVLVPYEPPQVGTEFTTVLYNFMCNSSCVGGMNRRPILIIVTLETRDGQVLGRRCFEARICACPGRDRKADEDSIRKQQVSDSTKNGDGTAAPFAQNTHGIQMTSIAAAASPDDELLYLPVRGRETYEMLLKIKESLELMQYLPQHTIETYRQQQQQQHQHLLQKQTSIQSPSSYGNSSPPLNKMNSMNKLPSVSQLINPQQRNALTPTTIPDGMGANIPMMGTHMPMAGDMNGLSPTQALPPPLSMPSTSHCTPPPPYPTDCSIVSFLARLGCSSCLDYFTTQGLTTIYQIEHYSMDDLASLKIPEQFRHAIWKGILDHRQLHEFSSPSHLLRTPSSASTVSVGSSETRGERVIDAVRFTLRQTISFPPRDEWNDFNFDMDARRNKQQRIKEEGE
